Source: patent US9072301B2 (priority 2012, dated 2015)
Some results were stated once for a whole list of compounds, not compound by compound.

What was measured:
Phytophthora infestans = assay type: in vivo; conditions: tomato plants, 250 ppm sprayed to run-off, inoculated next day, assessed after 6 days; untreated plants 85%
Phakopsora pachyrhizi = assay: Protective control of soy bean rust on soy beans, glass house trial; assay type: in vivo; conditions: soy bean seedlings, 250 ppm sprayed to run-off, inoculated after 1 day, assessed after fourteen days; untreated plants 91%

With `COc1cc(CCNc2ncnc3cnn(C)c23)ccc1Oc1ccnc(C(F)(F)F)c1` [I-10, N-[2-[3-methoxy-4-[[2-(trifluoromethyl)-4-pyridyl]oxy]phenyl]ethyl]-1-methyl-pyrazolo[4,3-d]pyrimidin-7-amine] the diseased leaf area (Phytophthora infestans) was “at most 15%” and the diseased leaf area (Phakopsora pachyrhizi) was “at most 20%”.
